From publication PMC2989437
Results are given in words; binding and its absence hold for the method and conditions named. Binding seen in cells or lysates may run through a third protein. Some results given as binding are weak or reduced against the parent protein; the word gives no strength.

Amino acid sequences for entries named in this document (tags omitted).
UniProt O14157: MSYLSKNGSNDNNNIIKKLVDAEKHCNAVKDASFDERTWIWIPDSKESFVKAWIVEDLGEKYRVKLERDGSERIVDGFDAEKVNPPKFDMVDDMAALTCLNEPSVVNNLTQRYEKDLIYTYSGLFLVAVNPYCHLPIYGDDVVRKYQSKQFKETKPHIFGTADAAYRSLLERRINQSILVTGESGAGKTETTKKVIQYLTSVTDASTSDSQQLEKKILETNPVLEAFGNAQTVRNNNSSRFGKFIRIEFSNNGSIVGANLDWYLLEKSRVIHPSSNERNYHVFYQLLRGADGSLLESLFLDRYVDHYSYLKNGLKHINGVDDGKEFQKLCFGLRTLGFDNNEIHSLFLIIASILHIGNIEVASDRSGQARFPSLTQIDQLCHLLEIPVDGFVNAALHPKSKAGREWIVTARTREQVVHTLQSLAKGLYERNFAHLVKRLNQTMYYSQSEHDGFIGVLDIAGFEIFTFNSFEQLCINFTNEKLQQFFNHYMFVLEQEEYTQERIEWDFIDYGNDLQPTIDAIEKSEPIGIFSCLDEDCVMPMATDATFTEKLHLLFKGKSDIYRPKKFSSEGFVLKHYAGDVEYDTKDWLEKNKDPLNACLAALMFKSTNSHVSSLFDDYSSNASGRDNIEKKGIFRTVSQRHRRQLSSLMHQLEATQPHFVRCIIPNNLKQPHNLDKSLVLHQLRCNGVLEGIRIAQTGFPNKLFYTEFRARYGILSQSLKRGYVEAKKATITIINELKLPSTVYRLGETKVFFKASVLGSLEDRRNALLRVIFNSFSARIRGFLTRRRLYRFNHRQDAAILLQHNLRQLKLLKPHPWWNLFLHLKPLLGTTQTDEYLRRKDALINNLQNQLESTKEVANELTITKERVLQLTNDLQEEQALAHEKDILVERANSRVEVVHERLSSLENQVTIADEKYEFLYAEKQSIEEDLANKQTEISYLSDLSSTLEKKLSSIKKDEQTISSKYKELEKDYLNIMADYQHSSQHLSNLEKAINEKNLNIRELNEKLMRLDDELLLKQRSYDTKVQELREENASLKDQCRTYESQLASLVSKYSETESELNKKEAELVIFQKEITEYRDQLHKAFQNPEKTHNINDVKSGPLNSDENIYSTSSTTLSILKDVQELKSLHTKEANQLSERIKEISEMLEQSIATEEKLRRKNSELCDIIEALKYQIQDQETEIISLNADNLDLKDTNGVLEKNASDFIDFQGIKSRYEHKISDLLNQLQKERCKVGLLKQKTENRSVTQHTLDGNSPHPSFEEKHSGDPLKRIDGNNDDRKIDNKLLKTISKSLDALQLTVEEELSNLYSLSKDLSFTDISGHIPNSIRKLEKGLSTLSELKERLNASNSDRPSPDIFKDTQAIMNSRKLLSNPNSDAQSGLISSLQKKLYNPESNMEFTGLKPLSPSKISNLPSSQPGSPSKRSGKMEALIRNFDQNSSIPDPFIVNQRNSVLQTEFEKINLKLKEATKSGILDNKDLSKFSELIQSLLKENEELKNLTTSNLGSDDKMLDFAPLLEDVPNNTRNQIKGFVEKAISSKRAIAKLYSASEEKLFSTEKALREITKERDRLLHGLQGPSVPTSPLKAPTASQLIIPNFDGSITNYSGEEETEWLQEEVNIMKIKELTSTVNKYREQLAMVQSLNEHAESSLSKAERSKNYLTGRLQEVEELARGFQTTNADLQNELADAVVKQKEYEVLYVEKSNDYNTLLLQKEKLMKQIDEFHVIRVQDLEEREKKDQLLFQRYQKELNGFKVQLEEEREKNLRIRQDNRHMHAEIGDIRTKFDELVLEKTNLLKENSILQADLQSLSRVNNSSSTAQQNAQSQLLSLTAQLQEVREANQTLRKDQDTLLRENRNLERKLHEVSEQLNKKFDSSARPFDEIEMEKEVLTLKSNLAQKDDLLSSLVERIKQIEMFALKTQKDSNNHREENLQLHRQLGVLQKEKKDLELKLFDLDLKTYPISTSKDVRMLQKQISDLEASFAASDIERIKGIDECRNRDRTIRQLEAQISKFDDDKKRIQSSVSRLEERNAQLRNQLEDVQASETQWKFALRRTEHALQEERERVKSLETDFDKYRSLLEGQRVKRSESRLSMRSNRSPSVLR

Target: Myp2-YFP (Schizosaccharomyces pombe) (UniProt O14157)
Assay: co-IP; Mto1 co-immunoprecipitated with Myp2-YFP in fission yeast cell extracts

- binding: binds
B1: Mto1 (protein, UniProt O94488 1-1115)
chain: MEENSSELDSNNFNVLVDNLAGLSLTDEEVRRILSPRKEGSRQLPSSTSKDEDSEEASHKYDFEIDRDSLKSDSGSPRLHQNATAPTSSTPLQSPDESVNKLNSEDEEGNSSVAPFFLDTTNFDRLNDNITTDDEQLSPVLTANQGFQSQEQYEEDSYNNYDYTSDPSSPNYISSSLDQLPHLDDEDDLQLTPIKEERNYLHSQDAPTTNALSKKISDILIPASAMKDLKDRKNALAKEFEESQPGSSLTLKEQANVIDNLRKEVFGLKLKCYFLYDQLNKFHDQEVQDIMKQNIDLKTLTMELQRAVAGYEKKISGLESRIKPDQSFNLSTPSPAPSNLITLQSRYSQALSELETTKRAFAALRKEKSKKTNYSVGAYNEDRNVLSNMLDNERREKEALLQELESLRVQLSKKVPMPAKNTDERVIETLQRSNELLRMDISMQNEALLLRKQENDRLVKQVEELTVALNSGKMNAIVEAESSKNELWDSMMVSRMKTQEQSIELTRLYKQLQDIEEDYENKLMRMEQQWREDVDQLQEYVEEITQELQDTKEVLSKSSKESDDYEEVVGKLRTEAEREIEKFEKTIRENEESISLFKEEVEKLTDEITQLSERYNDKCHEFDELQKRLQTLEEENNKAKEDSTSKTSNLLEQLKMTEAEVDSLRKENEENKQVIALKESELVKSNDNKLLLNEQIESLNDQLSQLKTEMESVTTSKESLADYLSNLKERHNDELDSLNKKLREFEGILSSNSSLKSEIEERNNQYVTLRENFDSLQNAIMETFDKQVTHCSVNHLVQQIRKLKDENKKDQSGTDKLMKKIYHCEQSLKEKTNSLETLVSEKKELKNLLDAERRSKKAIQLELENLSSQAFRRNLSGSSSPSERSQSRELKLLQASEKRLKEQVEERNSLIKNIVTRFTQLNTGSKPVNTNVEALTTISSMNQAVNMNFRELDKSIQEFKRKCQSMEREFKTELRKLDGVLEARSKRLSQLEERVKLLGAGSTSSIPNSPRASKRVSLDSEDKKLVPASPDKSAVQRGITALKRDAEGMSHIWQLRLREMEFQLKAEQEGRKRDKLGARERLQDLIRQNRSLSRQIKTDKESNSRSPSISSQEHK
